According to PubChem BioAssay AID1259415 (National Center for Advancing Translational Sciences (NCATS), 2018):
About 18,000 (4.4%) of roughly 410,000 compounds were called active. This list was built around the results that the source calls inconclusive (neither active nor inactive); the mix of calls is not that of the screen. Rule as the data show it: active = activity change below about -60%; inconclusive = no clear call, values can overlap the other calls; inactive = above about -39%.

Test: qHTS Assay for inhibitors of the human cytomegalovirus (HCMV)
Details: HFF cells, HCMV-luciferase reporter, 72 h; at 57.5 µM; active compounds read low
Outline: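 After 16 h attachment at 37C, HFF cells received test compound and HCMV-luciferase (1 PFU/cell); reporter luminescence read 72 h later, data normalized against buffer-only and known inhibitor Salinomycin.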
% is scaled to controls: 0 for no effect and ±100 for the full control effect.

Structure (SMILES)	activity change, negative = inhibition
COc1ccc2sc(NC(=O)c3ccco3)nc2c1	inconclusive: -46.5%
C=CCn1c(SCc2ccc(C(=O)Nc3ccccc3)cc2)nnc1-c1ccccc1	inconclusive: -53%
CCCCC(=O)N/N=C/c1c(O)n(CC)c(=S)n(CC)c1=O	inconclusive: -47.2%
CC(=O)C(Cc1ccc(Cl)nc1)(Cc1ccc(Cl)nc1)C(C)=O	inactive: 42.6%
CC(=O)c1ccc(N2CCN(C(=O)c3ccc(NC(=O)C4CCCO4)cc3)CC2)cc1 (configuration not stated)	inactive: 119%
Nn1c(C2CCCCC2)nc2ccccc2c1=O	inconclusive: -48.9%
CCOc1ccc(CC(=O)N2N=C(C)CC2(O)C(F)(F)F)cc1 (configuration not stated)	inconclusive: -40.7%
CN(C)S(=O)(=O)c1cccc(NC(=O)c2ccc3nccnc3c2)c1	inconclusive: -46.4%
CCCc1cc(=O)oc2cc(C)cc(OCC(=O)Nc3ccc(CN4CCOCC4)cc3)c12	inactive: -37.8%
CCNc1nnc(-c2ccc(C)cc2)o1	inactive: 65.4%
CC(=O)NC(=C(Cl)Cl)S(=O)(=O)c1ccccc1	active: -99.4%
O=C(CCc1ccccc1)NCC(=O)N/N=C/c1ccc2c(c1)OCO2	inconclusive: -47.3%
COC(=O)c1ccc(S(=O)(=O)NCc2ccc(OC)cc2)n1C	inactive: 12.5%
CCOC(=O)c1c(NC(=O)CCCC(=O)O)sc2c1CCC2	inconclusive: -46.7%
COc1ccc(NC(=O)/C(C#N)=C\c2cc(C)n(-c3ccc(Oc4ccc([N+](=O)[O-])cn4)cc3)c2C)cc1	inconclusive: -47.4%
CC1(c2ccc([N+](=O)[O-])cc2)Nc2ccccc2S1 (configuration not stated)	inactive: -32.7%
CCOc1ccc(CCNC(=O)c2ccc3nc(N4CCOCC4)sc3c2)cc1OCC	inconclusive: -41.3%
COc1cccc(N(C(=O)c2ccco2)c2nc(-c3sc(NC(=O)c4ccco4)nc3C)cs2)c1	inconclusive: -53.8%
Cc1ccc2nc(C)c(C(=O)N/N=C/c3cccs3)n2c1	inconclusive: -55.1%
CCCC(=O)C1=C(c2ccc(C)c(C)c2)N(C(=O)CCC)n2c(CC)nnc2S1	active: -76%
O=C(CCc1ccccc1)NNC(=O)CCc1ccccc1	inactive: 6.01%

Reprinted from the listing, two compounds:
Structure (SMILES)	activity change, negative = inhibition
COc1ccc(NC(=O)/C(C#N)=C\c2cc(C)n(-c3ccc(Oc4ccc([N+](=O)[O-])cn4)cc3)c2C)cc1	inconclusive: -47.4%
CC1(c2ccc([N+](=O)[O-])cc2)Nc2ccccc2S1 (configuration not stated)	inactive: -32.7%

Following part:

Structure (SMILES)	activity change, negative = inhibition
NC(=O)c1nsc(C(=O)N(CCc2ccccc2)C(C(=O)NC2CCCC2)c2ccco2)c1N (configuration not stated)	active: -60.1%
Cc1cc(C)c2nc(-c3cccnc3)cc(C(=O)NC(C)c3cnn(C)c3C)c2c1 (configuration not stated)	inconclusive: -43.2%
CN1C(=O)C(C2(O)C(=O)N(Cc3ccccc3)c3ccccc32)c2ccccc21 (configuration not stated)	inactive: -11.1%
CC1CCCCc2nc3c(c(=O)n21)CCCC3 (configuration not stated)	inconclusive: -41.8%
CCN(CC)c1ncnc2c1ncn2[C@H]1CN(Cc2ccncc2)C[C@@H](CO)O1	inactive: -7.77%
O=C(Nc1cc(S(=O)(=O)N2CCOCC2)ccc1N1CCOCC1)c1cc2c(s1)CCC2	inconclusive: -42.9%
Cc1cc(C)cc(-n2c(SCC(=O)NCC3CCCO3)nc3c([nH]c4ccccc43)c2=O)c1 (configuration not stated)	inactive: 10.8%
COCCNC(=O)c1cccc(OC2CCN(Cc3ccc(Cl)c(F)c3)CC2)c1	inconclusive: -56%
CC(C)Oc1ccc(C(=O)OCC(=O)NCCNC(=O)COC(=O)c2ccc(OC(C)C)cc2)cc1	inactive: 49.4%
CCOc1cccc(=NC2CCCCC2)c2c(C)[nH]c(C)c12	active: -110%
O=C(COC(=O)CCc1c[nH]c2ccccc12)NCc1ccccc1	inconclusive: -48.8%
Cc1c(CCC(=O)NCCC(=O)O)c(=O)oc2c(C)c3oc4c(c3cc12)CCCC4	inconclusive: -47.2%
COc1ccc(CNCC(O)COc2cccc3c2OC(C)(C)C3)cc1 (configuration not stated)	active: -64.2%
CCOC(=O)N1CCC(=NNC(=O)COc2cccc(C)c2)CC1	inactive: 41.8%
Cc1cccc(C)c1NC(=O)CN(C)C(=O)c1ccccc1Cc1ccccc1	inconclusive: -50.3%
Cc1cc(Cl)c(S(=O)(=O)Nc2ccc3c(c2)OCCO3)cc1OCC(=O)NC1CCCCC1	active: -69.8%
O=C(N/C=C/n1cnc2cc(C(F)(F)F)ccc21)c1ccccc1F	inconclusive: -48.2%
COC(=O)c1nc(-c2ccc3c(n2)C(=O)C(N)=C(OC)C3=O)c(N)c(-c2ccc(OC)c(OC)c2O)c1C	inconclusive: -59.7%
COC(=O)c1ccc(Cl)cc1NC(=O)N(C)CCc1c(C)nn(C)c1C	inactive: -6.72%
O=C(NC(=S)NCc1ccncc1)c1ccccc1	inconclusive: -47.4%
Cc1nonc1OCC(C)(COc1nonc1C)NC(=O)c1ccccc1	inactive: -15.2%
